Reference: patent US20050119456A1
These are yes or no findings as the source states them, for the method shown. In cells and extracts the contact can be indirect. Some entries that bind do so weakly or less than the wild type.

Protein sequences, listed by entry. Tags and fused reporters are not part of them. Residues count along the entry.
UniProt Q9Y618, residues 1-900: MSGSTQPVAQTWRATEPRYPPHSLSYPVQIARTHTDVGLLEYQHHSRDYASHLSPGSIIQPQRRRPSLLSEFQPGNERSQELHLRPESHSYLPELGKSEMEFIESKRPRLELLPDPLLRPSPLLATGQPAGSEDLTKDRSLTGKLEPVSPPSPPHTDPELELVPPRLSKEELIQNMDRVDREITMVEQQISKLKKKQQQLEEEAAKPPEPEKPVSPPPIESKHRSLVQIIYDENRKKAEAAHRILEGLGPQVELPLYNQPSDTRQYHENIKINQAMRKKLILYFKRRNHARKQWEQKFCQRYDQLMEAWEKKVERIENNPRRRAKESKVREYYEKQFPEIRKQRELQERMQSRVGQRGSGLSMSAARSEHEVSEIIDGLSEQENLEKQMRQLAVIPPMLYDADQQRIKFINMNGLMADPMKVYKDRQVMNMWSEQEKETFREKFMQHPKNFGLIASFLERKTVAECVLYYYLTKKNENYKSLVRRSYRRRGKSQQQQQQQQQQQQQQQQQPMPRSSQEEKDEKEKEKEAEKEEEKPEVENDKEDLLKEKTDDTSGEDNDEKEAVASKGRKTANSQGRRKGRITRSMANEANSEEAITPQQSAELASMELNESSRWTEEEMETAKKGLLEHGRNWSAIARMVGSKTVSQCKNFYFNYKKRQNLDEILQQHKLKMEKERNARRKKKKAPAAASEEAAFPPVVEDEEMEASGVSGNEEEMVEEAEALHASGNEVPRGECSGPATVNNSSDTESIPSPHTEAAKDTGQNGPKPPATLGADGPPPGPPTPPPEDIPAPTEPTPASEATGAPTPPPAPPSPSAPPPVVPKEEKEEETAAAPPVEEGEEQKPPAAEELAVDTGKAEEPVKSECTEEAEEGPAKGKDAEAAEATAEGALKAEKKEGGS

Tests used:
[1] = target: GST-SMRT (Hu SMRT(1-900) fused to GST, from pGEX-6p-1) (human) (UniProt Q9Y618); experiment: GST pull-down (told in the discussion of the co-transfection experiment)
[2] = target: GST-SMRT (Hu SMRT(1-900) fused to GST, from pGEX-6p-1) (human) (UniProt Q9Y618); experiment: GST pull-down of 35S-labeled in vitro translated C21 fragment by GST-SMRT(1-900)

binding [1]: binds
binding [2]: binds
B1: 21[δC] (protein, not shown: small tags and cut ends)
chain: MSISSDEVNFLVYRYLQESGFSHSAFTFGIKSHISQSNINGALVPPAALISIIQKGLQYVEAEVSINEDGTLFDGRPIESLSLIDAVMPDVVQTRQQAYRDKLAQQQAAAAAAAAAAASQQGSAKNGENTANGEENGAHTIANNHTDMMEVDGDVEIPPNKAVVLRGHESEVFICAWNPVSDLLASGSGDSTARIWNLSENSTSGSTQLVLRHCIREGGQDVPSNKDVTS
modifications: 35S-methionine label
